Binding data for six molecules are collected here from PMC9089915.

Amino acid sequences for entries named in this document (tags omitted).
UniProt P63279: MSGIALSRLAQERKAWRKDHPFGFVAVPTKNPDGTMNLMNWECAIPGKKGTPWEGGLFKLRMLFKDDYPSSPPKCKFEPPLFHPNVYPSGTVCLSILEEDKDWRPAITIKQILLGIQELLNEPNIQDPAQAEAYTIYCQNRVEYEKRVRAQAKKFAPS
UniProt F5HDE4: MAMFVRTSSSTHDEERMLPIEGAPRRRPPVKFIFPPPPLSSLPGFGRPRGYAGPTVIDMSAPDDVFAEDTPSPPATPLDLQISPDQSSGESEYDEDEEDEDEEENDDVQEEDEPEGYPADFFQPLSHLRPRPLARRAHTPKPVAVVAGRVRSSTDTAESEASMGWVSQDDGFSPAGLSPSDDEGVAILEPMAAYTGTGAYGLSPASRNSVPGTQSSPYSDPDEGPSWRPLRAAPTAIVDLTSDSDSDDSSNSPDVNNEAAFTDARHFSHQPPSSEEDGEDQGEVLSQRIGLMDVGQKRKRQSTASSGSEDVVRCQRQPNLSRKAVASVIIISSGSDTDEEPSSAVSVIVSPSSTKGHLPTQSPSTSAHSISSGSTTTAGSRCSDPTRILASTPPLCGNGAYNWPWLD
UniProt P61956: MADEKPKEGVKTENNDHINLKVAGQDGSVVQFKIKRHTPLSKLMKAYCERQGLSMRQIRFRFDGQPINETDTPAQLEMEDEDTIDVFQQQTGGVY

These are yes or no findings as the source states them, for the method shown. For some of these results: In cells and extracts the contact can be indirect. Some binding calls cover weakened binding; strength is not graded here.

In one assay the target is GST-SUMO1 (human) (UniProt P63165). The experiment in a line: pull-down; GST, GST-SUMO1 or GST-SUMO2 on Glutathione Sepharose 4B incubated with whole cell lysates of transfected HEK293T (20 mM Tris-HCl pH 7.5, 0.5% NP-40, 150 mM NaCl); 2 h at 4 °C by the methods, 30 min by the legends; IB; only the target purified.
Assay [1] has as its target GST-SUMO1^G96A/G97A (human) (UniProt P63165). Kind of assay: pull-down; GST only, GST-SUMO1, GST-SUMO2 (or SUMO G/A mutants) on glutathione-Sepharose beads mixed with 0.5 μg purified His-tagged ORF45 in vitro for 30 min; Coomassie staining and IB with anti-ORF45; both purified.
Assay [2] deals with endogenous ubc9 (human (endogenous in HEK293T, iSLK-BAC16 and BCBL1)) (UniProt P63279). The experiment in a line: co-IP; iSLK-BAC16 (doxycycline/sodium butyrate) and BCBL1 (TPA) cells, 72 h post-induction of lytic replication; IP with specific antibodies or control IgG and protein A/G agarose, overnight at 4 °C; IB.
Assay [3] deals with KSHV ORF45 (full-length, GAL4 DNA-binding domain fusion, pAS2-1-ORF45) (KSHV) (UniProt F5HDE4). Kind of assay: two-hybrid; yeast co-transformed with bait plus prey; activation of the HIS3 and ADE2 reporters by growth on -4DO plates.
For assay [4], the target named is endogenous ubc9 (human (endogenous in HEK293T, iSLK-BAC16 and BCBL1)) (UniProt P63279). Kind of assay: co-IP; HEK293T transfected with Flag-tagged ORF45 or vector, 48 h; lysis in 50 mM Tris-HCl pH 7.4, 150 mM NaCl, 1% NP-40, 1 mM EDTA, 10% glycerol; IP and IB with indicated antibodies.
The next assay deals with GST-SUMO2 (human) (UniProt P61956). The experiment in a line: pull-down; GST, GST-SUMO1 or GST-SUMO2 on Glutathione Sepharose 4B incubated with whole cell lysates of transfected HEK293T (20 mM Tris-HCl pH 7.5, 0.5% NP-40, 150 mM NaCl); 2 h at 4 °C by the methods, 30 min by the legends; IB; only the target purified.

In the case of “KSHV ORF45, wild type, expressed in HEK293T for the GST pull-down (from UniProt F5HDE4 1-407)”, in the assay with GST-SUMO1 (human), the binding entry was “binds”. Take “purified His-tagged KSHV ORF45 protein (from UniProt F5HDE4 1-407)”: the binding result in assay [1] is “binds”. As for “KSHV ORF45 expressed from the viral genome during lytic replication (from UniProt F5HDE4 1-407)”, the binding result in assay [2] is “binds”. For the molecule “SUMO1 (yeast two-hybrid prey) (from UniProt P63165 1-101)”, the binding result in assay [3] is recorded as “binds”. As to “Flag-tagged KSHV ORF45 (from UniProt F5HDE4 1-407)”, the binding entry in assay [4] is given as “binds”.

B1: ORF45 homologue of Epstein-Barr virus (protein, UniProt P30117 1-217)
chain: MAMFLKSRGVRSCRDRRLLSDEEEETSQSSSYTLGSQASQSIQEEDVSDTDESDYSDEDEEIDLEEEYPSDEDPSEGSDSDPSWHPSDSDESDYSESDEDEATPGSQASRSSRVSPSTQQSSGLTPTPSFSRPRTRAPPRPPAPAPVRGRASAPPRPPAPVQQSTKDKGPHRPTRPVLRGPAPRRPPPPSSPNTYNKHMMETTPPIKGNNNYNWPWL
On to B1, for which the binding result in the assay with GST-SUMO2 (human) and with GST-SUMO1 (human) was “no binding” in each case.
